In patent US10117878B2, “Ligands for nematode nuclear receptors and uses thereof” (priority 2006, dated 2018):
At least one compound was matched to its structure with a doubt left.

Sequences of proteins named here, by UniProt entry; tags and fusion partners are left off. Residues count along the entry.
UniProt G5EFF5, 184-753: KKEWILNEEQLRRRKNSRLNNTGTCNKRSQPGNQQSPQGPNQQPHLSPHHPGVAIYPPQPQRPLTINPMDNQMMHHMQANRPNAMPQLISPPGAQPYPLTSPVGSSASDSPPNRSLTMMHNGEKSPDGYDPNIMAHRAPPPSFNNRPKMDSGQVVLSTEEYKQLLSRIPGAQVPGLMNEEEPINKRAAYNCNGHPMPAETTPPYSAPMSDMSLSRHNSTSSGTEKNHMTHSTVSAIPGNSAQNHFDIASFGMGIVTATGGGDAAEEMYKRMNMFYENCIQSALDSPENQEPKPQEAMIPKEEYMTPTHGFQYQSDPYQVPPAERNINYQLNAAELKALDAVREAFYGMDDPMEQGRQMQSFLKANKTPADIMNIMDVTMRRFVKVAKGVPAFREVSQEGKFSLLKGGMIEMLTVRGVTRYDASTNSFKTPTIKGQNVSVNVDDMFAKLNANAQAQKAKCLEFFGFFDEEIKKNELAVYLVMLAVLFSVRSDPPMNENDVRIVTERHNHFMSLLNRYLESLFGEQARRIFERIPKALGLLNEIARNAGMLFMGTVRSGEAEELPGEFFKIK

Biological target: T1, GAL4-DAF-12 (Caenorhabditis elegans, UniProt G5EFF5)
T1 construct: 184-754aa (DAF-12); expressed in transfected cells; host or cells: HEK293
Assay: Co-transfection assay: GAL4-DAF-12 and GAL4-responsive luciferase reporter in HEK293 cells
Type: cell-based, C. elegans
Conditions: bile acids 10 μM with IBAT co-transfected; assays in the presence or absence of co-transfected DAF-9

Row | SMILES | Activation of DAF-12, initial compound screen
1 | C[C@H](CCC(=O)O)[C@H]1CC[C@H]2[C@@H]3CC[C@@H]4C[C@H](O)CC[C@]4(C)[C@H]3CC[C@]12C [lithocholic acid] | did not exhibit activity
2 | C[C@]12CC[C@@H]3c4ccc(O)cc4CC[C@H]3[C@@H]1CC[C@@H]2O [estradiol] | No other bile acids or endocrine hormones tested activated DAF-12
3 | C[C@H](CCC(=O)O)[C@H]1CC[C@H]2[C@@H]3CC[C@@H]4C[C@H](O)CC[C@]4(C)[C@H]3C[C@H](O)[C@]12C [deoxycholic acid] | No other bile acids or endocrine hormones tested activated DAF-12
